Test results: PMC7327492
Results are given in words; binding and its absence hold for the method and conditions named. In cells and extracts the contact can be indirect. A yes stands for co-enrichment or nearness to the bait. Other partners may have been found. Sequences can lack the tags named with a protein.

Protein sequences, listed by entry. Tags and fused reporters are not part of them.
UniProt P46459: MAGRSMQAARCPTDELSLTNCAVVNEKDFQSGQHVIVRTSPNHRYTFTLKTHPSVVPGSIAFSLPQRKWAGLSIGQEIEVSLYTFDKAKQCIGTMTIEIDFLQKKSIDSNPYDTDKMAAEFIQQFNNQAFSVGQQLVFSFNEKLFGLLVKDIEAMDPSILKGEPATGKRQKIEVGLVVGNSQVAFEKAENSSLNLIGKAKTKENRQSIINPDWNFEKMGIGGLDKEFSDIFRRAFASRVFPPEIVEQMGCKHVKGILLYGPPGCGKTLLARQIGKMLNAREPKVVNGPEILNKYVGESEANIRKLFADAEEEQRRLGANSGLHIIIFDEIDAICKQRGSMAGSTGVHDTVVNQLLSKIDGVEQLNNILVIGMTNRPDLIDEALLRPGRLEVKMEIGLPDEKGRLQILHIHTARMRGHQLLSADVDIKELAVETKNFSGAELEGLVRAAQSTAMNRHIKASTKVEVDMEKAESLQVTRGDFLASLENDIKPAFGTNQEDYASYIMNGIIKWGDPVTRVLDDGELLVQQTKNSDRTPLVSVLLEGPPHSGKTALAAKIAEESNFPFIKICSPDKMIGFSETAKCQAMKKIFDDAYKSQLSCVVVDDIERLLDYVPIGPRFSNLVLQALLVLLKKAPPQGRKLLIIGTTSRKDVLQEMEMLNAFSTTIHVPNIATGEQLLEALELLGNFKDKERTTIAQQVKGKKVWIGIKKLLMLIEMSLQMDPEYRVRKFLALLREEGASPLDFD

Target: T1, YFP-tagged 4x(LxxIxE) B56 inhibitor
T1 sequence: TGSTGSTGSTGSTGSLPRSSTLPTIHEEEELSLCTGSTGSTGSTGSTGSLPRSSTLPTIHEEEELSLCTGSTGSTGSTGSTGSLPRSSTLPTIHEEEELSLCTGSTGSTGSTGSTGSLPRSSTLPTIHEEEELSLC
Experiment: affinity purification with mass spectrometry; YFP-tagged B56 inhibitor affinity-purified from HeLa cells, quantitative label-free MS against the control inhibitor

binding: binds
Substance: NSF (N-ethylmaleimide-sensitive fusion protein) (from UniProt P46459 1-744)
